The exact form of at least one protein or probe is not confirmed.

The test system of this data set is GmTOE4a:MBP. Briefly: EMSA. Conditions: unlabeled probe at 400x used as specific competitor; EMSA/Gel-shift binding buffer (Biyuntian/Beyotime), 20 ul, room temperature, 25 min; salt and pH not …; recombinant protein; label: 5' 6-FAM.

Consider “GTGTGGTGGTTCACGAGGGCACAAGGGTTC (double strand) [probe-FT5a]”, for which the binding result is given as “binds”.
For “TGTTTGAAAAAAACGAGGTGATCAGTTTTA (double strand) [probe-FT2a]” the value was “binds”.

The record behind these values is PMC9839322.
